Results reported in patent US20140303105A1, “Primycin and components thereof for use in the treatment or prevention of infections caused by specific pathogens” (PANNONPHARMA GYÓGYSZERGYÁRTÓ ZRT., priority 2011, published 2014).
Values after ≈ are worked out from the molar mass of the structure shown. Like-named read-outs stand apart in the source and are kept apart here. At least one structure is not confirmed: it was looked up by name or label, or the drawing left a doubt.

Tests used:
[1] = system: Staphylococcus epidermidis 7586; conditions: cited from earlier work
[2] = system: Staphylococcus aureus 7503; conditions: cited from earlier work
Diphteroides 8264 = conditions: cited from earlier work
Streptococcus mitis 5728 = conditions: cited from earlier work
[3] = system: Staphylococcus hominis 7835; conditions: cited from earlier work
[4] = system: Streptococcus simulans 7866; conditions: cited from earlier work
Staphylococcus capitis = conditions: cited from earlier work
Escherichia coli B 1218 = conditions: cited from earlier work
[5] = system: Enterobacter cloacae B 520; conditions: cited from earlier work
Propionibacterium acnes [6] = conditions: cited from earlier work
[7] = system: Staphylococcus epidermidis; conditions: by Bryskier; cited from earlier work
Streptococcus mitis = conditions: by Bryskier; cited from earlier work
Coryneform(s) = conditions: by Bryskier; cited from earlier work
Escherichia coli = conditions: by Bryskier; cited from earlier work
Enterobacter cloacae = conditions: by Bryskier; cited from earlier work
Propionibacterium acnes [8] = conditions: by Bryskier; cited from earlier work
[9] = system: Staphylococcus aureus, methicillin resistant; assay: Standard microdilution susceptibility test, clinical isolates; format: cell-based; design: unit not given beside the values; conditions: 10 clinical isolates
[10] = system: Coagulase-negative Staphylococus sp., methicillin resistant; assay: as above; format: cell-based; design: unit not given beside the values; conditions: 10 clinical isolates
[11] = system: Enterococcus sp., vancomycin susceptible; assay: as above; format: cell-based; design: unit not given beside the values; conditions: 20 clinical isolates
[12] = system: Coagulase-negative Staphylococus sp., methicillin susceptible; assay: as above; format: cell-based; design: unit not given beside the values; conditions: 10 clinical isolates
[13] = system: Streptococcus pneumoniae, penicillin resistant; assay: as above; format: cell-based; design: unit not given beside the values; conditions: 10 clinical isolates
[14] = system: Streptococcus viridans sp.; assay: as above; format: cell-based; design: unit not given beside the values; conditions: 20 clinical isolates
[15] = system: Staphylococcus saprophyticus 8454; conditions: cited from earlier work
[16] = system: Serotype β Streptococcus 8252; conditions: cited from earlier work
Micrococcus spp. = conditions: cited from earlier work
[17] = system: Staphylococcus aureus ATCC 25923; conditions: cited from earlier work
[18] = system: Bacillus subtilis ATCC 6633; conditions: cited from earlier work
S. aureus ATCC 25923 = conditions: by Bryskier; cited from earlier work
Micrococcus = conditions: by Bryskier; cited from earlier work
B. subtilis ATCC 6633 = conditions: by Bryskier; cited from earlier work

| SMILES | MIC [1] [µg/mL] | MIC [2] [µg/mL] | MIC (Diphteroides 8264) [µg/mL] | MIC (Streptococcus mitis 5728) [µg/mL] | MIC [3] [µg/mL] | MIC [4] [µg/mL] | MIC (Staphylococcus capitis) [µg/mL] | MIC (Escherichia coli B 1218) [µg/mL] | MIC [5] [µg/mL] | MIC (Propionibacterium acnes [6]) [µg/mL] | MIC (Coryneform(s)) [µg/mL] | MIC (Enterobacter cloacae) [µg/mL] | MIC (Propionibacterium acnes [8]) [µg/mL] | MIC Range [10] | MIC Range [11] | further results |
| --- | --- | --- | --- | --- | --- | --- | --- | --- | --- | --- | --- | --- | --- | --- | --- | --- |
| CCC[C@@H]1C[C@@H](C(=O)N[C@@H]([C@H]2O[C@H](SC)[C@H](O)[C@@H](O)[C@H]2O)[C@H](C)Cl)N(C)C1 [Clindamycin] | 31.3 (≈ 73.6 µM) | >250 | 250 (≈ 588 µM) | >250 | 31.3 (≈ 73.6 µM) | 31.3 (≈ 73.6 µM) | 31.3 (≈ 73.6 µM) | >250 | >250 | 0.5 (≈ 1.18 µM) | 250 (≈ 588 µM) | >250 | 0.5 (≈ 1.18 µM) | – | – | MIC [7]: 31.3 µg/mL (≈ 73.6 µM); MIC (Streptococcus mitis): >250 µg/mL; MIC (Escherichia coli): >250 µg/mL |
| CC1COc2c(N3CCN(C)CC3)c(F)cc3c(=O)c(C(=O)O)cn1c23 (stereo not drawn) [Ofloxacin] | – | – | – | – | – | – | – | – | – | – | – | – | – | 4->16 | 2->16 | MIC Range [9]: 1->16 |
| CN(C)[C@@H]1C(O)=C(C(N)=O)C(=O)[C@@]2(O)C(O)=C3C(=O)c4c(O)cccc4[C@@](C)(O)[C@H]3[C@H](O)[C@@H]12 [Oxytetracycline] | 62.5 (≈ 136 µM) | 1.0 (≈ 2.17 µM) | 31.3 (≈ 68 µM) | 1.0 (≈ 2.17 µM) | 31.3 (≈ 68 µM) | 2.0 (≈ 4.34 µM) | 31.3 (≈ 68 µM) | 1.0 (≈ 2.17 µM) | 2.0 (≈ 4.34 µM) | <0.5 | – | – | – | 0.125->32 | 0.25->32 | MIC Range [12]: 0.125->32; MIC Range [13]: 4->32; MIC Range [14]: 1->32; MIC [15]: <0.5 µg/mL; MIC [16]: 1.0 µg/mL (≈ 2.17 µM); MIC (Micrococcus spp.): 7.8 µg/mL (≈ 16.9 µM); MIC [17]: <0.5 µg/mL; MIC [18]: <0.5 µg/mL |
| CN(C)[C@@H]1C(O)=C(C(N)=O)C(=O)[C@@]2(O)C(O)=C3C(=O)c4c(O)cccc4[C@@](C)(O)[C@H]3C[C@@H]12 [Tetracycline] | – | – | – | – | – | – | – | – | – | – | 31.3 (≈ 70.4 µM) | 2.0 (≈ 4.5 µM) | <0.5 | – | – | MIC (S. aureus ATCC 25923): <0.5 µg/mL; MIC (Micrococcus): 7.8 µg/mL (≈ 17.6 µM); MIC (B. subtilis ATCC 6633): <0.5 µg/mL |
